Data on 1 substance can be found in publication PMC9792197.

The chains behind the UniProt entries cited, without tags or fusion partners.
UniProt Q15424: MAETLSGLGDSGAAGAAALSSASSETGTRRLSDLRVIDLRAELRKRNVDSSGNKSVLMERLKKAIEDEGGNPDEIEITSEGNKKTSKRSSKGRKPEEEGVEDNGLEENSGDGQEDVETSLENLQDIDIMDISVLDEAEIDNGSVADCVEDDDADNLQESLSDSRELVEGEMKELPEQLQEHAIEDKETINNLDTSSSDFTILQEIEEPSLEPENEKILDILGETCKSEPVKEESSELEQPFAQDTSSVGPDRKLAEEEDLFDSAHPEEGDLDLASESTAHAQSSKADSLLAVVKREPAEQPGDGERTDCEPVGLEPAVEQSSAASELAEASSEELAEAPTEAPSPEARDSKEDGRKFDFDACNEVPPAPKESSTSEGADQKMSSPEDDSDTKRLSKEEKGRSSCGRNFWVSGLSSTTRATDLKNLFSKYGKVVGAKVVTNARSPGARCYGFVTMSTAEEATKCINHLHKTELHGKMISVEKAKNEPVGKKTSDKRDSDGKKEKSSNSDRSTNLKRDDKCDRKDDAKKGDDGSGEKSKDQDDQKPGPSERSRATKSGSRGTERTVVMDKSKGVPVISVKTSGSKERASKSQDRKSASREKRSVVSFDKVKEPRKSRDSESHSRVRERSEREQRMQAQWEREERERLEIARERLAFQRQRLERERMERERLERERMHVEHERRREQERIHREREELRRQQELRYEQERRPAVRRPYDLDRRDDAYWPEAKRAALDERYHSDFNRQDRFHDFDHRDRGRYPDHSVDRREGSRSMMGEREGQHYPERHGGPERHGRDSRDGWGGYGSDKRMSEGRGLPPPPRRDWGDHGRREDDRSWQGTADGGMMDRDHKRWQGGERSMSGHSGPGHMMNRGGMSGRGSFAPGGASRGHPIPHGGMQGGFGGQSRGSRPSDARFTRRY
UniProt Q96BD8: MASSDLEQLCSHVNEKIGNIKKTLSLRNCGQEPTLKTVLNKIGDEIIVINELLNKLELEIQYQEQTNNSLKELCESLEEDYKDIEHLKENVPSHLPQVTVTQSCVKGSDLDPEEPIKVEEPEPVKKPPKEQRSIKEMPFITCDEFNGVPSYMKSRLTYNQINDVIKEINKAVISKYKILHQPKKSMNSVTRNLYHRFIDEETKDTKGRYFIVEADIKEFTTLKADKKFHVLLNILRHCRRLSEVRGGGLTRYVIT

This assay addresses scaffold attachment factor B (SAFB) (human (endogenous in HEK293T)) (UniProt Q15424). The experiment in a line: co-IP; reciprocal immunoprecipitation from HEK293T lysates (SKA1-overexpressed and control), anti-SKA1 or control IgG; Western blot with anti-SKA1 or anti-SAFB; normal IgG as negative control.

These are yes or no findings as the source states them, for the method shown. Binding seen in cells or lysates may run through a third protein. Some entries that bind do so weakly or less than the wild type.

Regarding “Spindle and kinetochore-associated protein 1 (SKA1) (from UniProt Q96BD8 1-255)”, the binding entry is “binds”.
